PubChem BioAssay AID540256 (National Center for Advancing Translational Sciences (NCATS), 2011)
Where “and” joins values, the source holds several entries; their conditions need not be identical. Identical values can stand only once. Hit rate of the full screen: of about 300,000 compounds, about 3,700 (1.2%) were called active. This list was built around the results that the source calls inconclusive (neither active nor inactive); the mix of calls is not that of the screen. Calls come from the whole dose curve; tested in HEK293 cells. Potencies of inconclusive entries are doubtful fits and often do not repeat.

Experiment: qHTS for Inhibitors of binding or entry into cells for Lassa Virus; note: nearly all actives have a fitted effect of over 50% in size
Conditions: Lassa virus pseudotype entry inhibition, cell reporter; series mostly up to 37.9 µM
Potency is the fitted concentration of half-maximal effect.

SMILES	Potency
O=[N+]([O-])c1ccccc1S(=O)(=O)Nc1ccc(-c2ccc(N3CCOCC3)nn2)cc1	inconclusive: 3.16 µM [activator, full curve, poor fit]
COc1ccc(CCN=C(NS(=O)(=O)c2ccc(Cl)cc2)c2ccccc2)cc1	inconclusive: 11.2 µM [inhibitor, partial curve, poor fit]
Cn1nccc1C(=O)NCc1ccc2c(c1)CCN2C(=O)c1ccc(F)cc1	inconclusive: 5.01 µM [inhibitor, full curve, poor fit]
CC1(C)CC(NC(=S)Nc2ccc([N+](=O)[O-])cc2)CC(C)(C)N1	inactive
O=C(CNC(=O)c1sc2ccccc2c1Cl)NC1CC1	inactive
O=C(CCCn1c(=S)[nH]c2cc3c(cc2c1=O)OCO3)N1CCN(c2ccc(Cl)cc2)CC1	inconclusive: 25.9 µM [inhibitor, single point]
Cc1ccc(-n2c(C)nnc2SCC(=O)N2CCc3ccccc3C2)cc1C	inactive
COc1cccc(N2CC(NC(=O)/C=C\c3ccc4c(c3)OCO4)CC2=O)c1 (centres undefined)	inactive
O=C(NNC(=S)Nc1ccc(F)cc1)[C@H]1C[C@@H]1c1ccccc1	inconclusive: 0.891 µM [inhibitor, full curve, poor fit]
N#Cc1c(-c2ccccc2)nc2n(-c3ccccc3)nc(C(=O)Nc3ccccc3)n2c1=O	inactive
COc1ccc(-n2nc(C(=O)N3CCN(c4ccccc4OC)CC3)c3c4ccccc4n(C)c3c2=O)cc1	inactive
COc1cccc(CC(NC(C)=O)C(=O)NC2CCN(c3c(Cc4ccccc4)c(C)nc4ncnn34)CC2)c1 (centres undefined)	inactive
CC(=O)N1CCN(C(=O)CCNC(=O)c2ccc(Br)cc2)CC1	inactive
Cc1ccc(/C(N)=N/OC(=O)N2CCOCC2)cc1	inconclusive: 8.2 µM [inhibitor, partial curve, poor fit]
COc1ccccc1/C=C/c1nc(C#N)c(N2CCCCCC2)o1	inconclusive: 7.08 µM [inhibitor, full curve, poor fit]
Cc1ccc(CSc2sc(C(=O)c3ccccc3)c(N)c2C#N)cc1	inconclusive: 6.31 µM [inhibitor, full curve, poor fit]
COC(=O)/C(=C\Nc1ccc(Cl)cc1Cl)NC(=O)c1ccc(OC)cc1	inconclusive: 4.47 µM [inhibitor, single point]
Cc1ccc(S(=O)(=O)NCCC(c2ccc(F)cc2)c2ccco2)cc1 (centres undefined)	inconclusive: 1 µM [inhibitor, partial curve, poor fit]
COC(=O)Cc1ccc(NC(=O)c2ccc3c(c2)C(=O)N(CC2CCCO2)C3=O)cc1 (centres undefined)	inactive
O=c1c2ccccc2nc(/C=C/c2cccc([N+](=O)[O-])c2)n1CCO	inconclusive: 1.78 µM [inhibitor, full curve, poor fit]
CCSc1ncnc2c1sc1nc3c(cc12)COC(C)(C)C3	inconclusive: 5.01 µM [activator, single point]
OC(COc1cccc2ccccc12)CN1CCOCC1 (centres undefined)	inactive
Cc1ccc(N/C(N)=N/c2nc(CSc3ccccn3)cc(=O)[nH]2)c(C)c1	inconclusive: 35.5 µM [inhibitor, single point]

SMILES	Potency
CCOc1ccc(/C=N/NC(=O)c2cc(-c3cccn3C)n[nH]2)cc1	inconclusive: 3.55 µM [inhibitor, partial curve]
O=C(NCc1cccc(F)c1)C1=Cc2cc(Br)ccc2OC1	inactive
CCOC(=O)c1ccccc1NC(=O)Cn1c(-c2nonc2N)nc2ccccc21	inconclusive: 1.03 µM [inhibitor, full curve]
CCCc1ccc(-c2c(C)sc(NC(=O)c3ccnn3C)c2C#N)cc1	inconclusive: 35.5 µM [inhibitor, single point]
CCOc1ccccc1C(=O)Nc1c(NC)c2ccccc2oc1=O	inconclusive: 4.47 µM [activator, full curve]
O=C(Nc1nnc(-c2ccccc2Cl)o1)c1cc2cc([N+](=O)[O-])ccc2s1	inactive
CC(C)OC(=O)CC12CN3CC(CC(=O)OC(C)C)(CN(C1)C(=O)c1ccccc1C3=O)C2=O	inactive
CCN1C(=O)c2cccc3c(S(=O)(=O)N(C(=O)c4ccncc4)c4ccc(OC)cc4)ccc1c23	inconclusive: 9.2 µM [inhibitor, partial curve]
CCN(CC)c1ccc(NC(=O)c2cnn(CC)c2)cc1	inactive
O=C(O)COc1ccc(-c2nccc(-c3ccccn3)n2)cc1	inconclusive: 22.4 µM [inhibitor, partial curve, poor fit]
COc1cccc(-c2nc(-c3ccc(NC(=O)c4cccnc4)cc3)no2)c1	inconclusive: 35.5 µM [inhibitor, single point]
CN1CCN(c2ccc(NC(=O)c3cc(Cl)c4c(c3)OCCO4)cc2)CC1	inconclusive: 35.5 µM [activator, single point]
Cc1cc(C)n2nc(-c3cccc(Br)c3)cc2n1	inconclusive: 35.5 µM [inhibitor, single point]
COc1ccc(N2CC(O)=C(c3nc4ccccc4s3)C2=N)cc1	inconclusive: 8.2 µM [inhibitor, partial curve, poor fit]
CC(C)C1Oc2ccccc2N(CC(=O)NCCCN2C(C)CCCC2C)C1=O (centres undefined)	inactive
CCc1ccccc1NC(=O)CN1C(=O)CCc2cc(S(=O)(=O)N3CCCCC3)ccc21	inactive
Cc1ccc(C)c(Cn2nnc(C(=O)NCc3ccc(Cl)cc3Cl)c2N)c1	inactive
O=C(O)CCc1ccc(-c2ccccc2)n1-c1cccc(O)c1	inactive
CCc1ccc(NC(=O)c2ccc(F)c(S(=O)(=O)N3CCC(C)CC3)c2)cc1	inconclusive: 5.01 µM [inhibitor, single point]
CC1(C)CC(=O)C=C(NCc2ccco2)C1	inactive
C/C(N)=C(/C#N)C(=O)COC(=O)c1cc(C)n(-c2ccc(F)cc2)c1C	inconclusive: 3.16 µM [inhibitor, full curve, poor fit] and inconclusive: 3.55 µM [inhibitor, full curve, poor fit]
Cc1ccccc1C(=O)c1c[nH]c(C(=O)NCc2cccs2)c1	inconclusive: 10 µM [inhibitor, partial curve, poor fit]
CCNC(=O)COc1ccc(-c2ccccc2)cc1	inconclusive: 5.62 µM [activator, single point]

SMILES	Potency
c1ccc(NCC2OCc3ccccc3CO2)cc1	inconclusive: 1.84 µM [activator, partial curve]
CC1(C)CC(=O)C(C2(O)C(=O)N(Cc3ccccc3)c3ccccc32)CO1 (centres undefined)	inconclusive: 23.1 µM [inhibitor, single point]
CC(C)c1nc(C(=O)N2CCCC(N3CCN(c4cccc(Cl)c4)CC3)C2)cs1 (centres undefined)	inconclusive: 6.31 µM [activator, single point]
CCN(CC)S(=O)(=O)c1cccc(C(=O)N[C@H](C(=O)OCC(N)=O)C(C)C)c1	inactive
Cc1cc(NC(=O)Nc2cccs2)no1	inactive
Nc1ccccc1Nc1ccc([N+](=O)[O-])cc1[N+](=O)[O-]	inactive
COc1ccc(S(=O)(=O)N(Cc2ccc(OC)c(OC)c2)Cc2ccco2)cc1	inconclusive: 35.5 µM [inhibitor, single point]
Cc1ncc(CO)c(/C=N/NC(=O)c2ccc(Br)cc2)c1O	inconclusive: 8.2 µM [inhibitor, partial curve, poor fit]
O=C(OCC1OC2OC3(CCCCC3)OC2C2OC3(CCCCC3)OC12)c1ccccc1 (centres undefined)	inactive
CCCCc1cc2c(cn1)=C(OC(=O)CCC(=O)OC)C(C)(OC(=O)CC)C(=O)C=2 (centres undefined)	inconclusive: 1.19 µM [activator, single point]
Cc1cccc(NC(=O)C2SC(=Nc3c(C)cccc3C)C(C(=O)N3CCOCC3)=C2N)c1 (centres undefined)	inconclusive: 14.1 µM [inhibitor, single point]
O=C(Nc1ccc(Nc2ccccc2)cc1)c1ccco1	inactive
CC(C)(C)OC(=O)n1cc(/C=N/NC(=O)c2ccco2)c2ccccc21	inactive
Cc1ccc2[nH]c3c(NCCN4CCOCC4)ncnc3c2c1	inconclusive: 6.31 µM [activator, partial curve]
CC1CN1c1cc2c(c3c1ccn3C)C1CCC2C1 (centres undefined)	inconclusive: 5.6 µM [inhibitor, full curve, poor fit]
NC(N)=N[C@@H](CCC(=O)O)C(=O)O	inactive
CCOCCCn1c(SC(C(=O)Nc2cc(C)ccc2C)c2ccccc2)nnc1-c1ccc(Cl)cc1 (centres undefined)	inconclusive: 18.4 µM [inhibitor, partial curve, poor fit]
Nc1nc(Cl)nc2ncn(Cc3ccccc3)c12	inconclusive: 1.26 µM [inhibitor, single point]
Cc1ccc2nc(NC(=O)c3nc(SCc4ccccc4C)ncc3Cl)sc2c1	inactive
Cc1ccc(N2CCN(C(=O)C3CCN(c4ncnc5c4nc4n5CCCCC4)CC3)CC2)c(C)c1	inconclusive: 22.4 µM [activator, partial curve, poor fit]
Cc1ccccc1C1=NCC(=O)N(CC(=O)NCc2ccco2)c2sc3c(c21)CCCC3	inconclusive: 8.2 µM [inhibitor, partial curve]
CCn1c2ccccc2c2cc(NC(=O)CSc3nnc(-c4cccc(OC)c4)n3N)ccc21	inactive
Cc1nc(Sc2ccc(Br)cc2)c(C#N)c(C)c1[N+](=O)[O-]	inconclusive: 35.5 µM [inhibitor, single point]
